# Publication PMC9765674
# Results are given in words; binding and its absence hold for the method and conditions named. In cells and extracts the contact can be indirect. These calls come from enrichment with a bait or labelling near it, and not all partners need be listed. A no says only that the protein was not detected with the bait.
# B1: RNase L, endogenous in HT-29 cells (enzyme, UniProt Q05823 1-741)
# chain: MESRDHNNPQEGPTSSSGRRAAVEDNHLLIKAVQNEDVDLVQQLLEGGANVNFQEEEGGWTPLHNAVQMSREDIVELLLRHGADPVLRKKNGATPFILAAIAGSVKLLKLFLSKGADVNECDFYGFTAFMEAAVYGKVKALKFLYKRGANVNLRRKTKEDQERLRKGGATALMDAAEKGHVEVLKILLDEMGADVNACDNMGRNALIHALLSSDDSDVEAITHLLLDHGADVNVRGERGKTPLILAVEKKHLGLVQRLLEQEHIEINDTDSDGKTALLLAVELKLKKIAELLCKRGASTDCGDLVMTARRNYDHSLVKVLLSHGAKEDFHPPAEDWKPQSSHWGAALKDLHRIYRPMIGKLKFFIDEKYKIADTSEGGIYLGFYEKQEVAVKTFCEGSPRAQREVSCLQSSRENSHLVTFYGSESHRGHLFVCVTLCEQTLEACLDVHRGEDVENEEDEFARNVLSSIFKAVQELHLSCGYTHQDLQPQNILIDSKKAAHLADFDKSIKWAGDPQEVKRDLEDLGRLVLYVVKKGSISFEDLKAQSNEEVVQLSPDEETKDLIHRLFHPGEHVRDCLSDLLGHPFFWTWESRYRTLRNVGNESDIKTRKSESEILRLLQPGPSEHSKSFDKWTTKINECVMKKMNKFYEKRGNFYQNTVGDLLKFIRNLGEHIDEEKHKKMKLKIGDPSLYFQKTFPDLVIYVYTKLQNTEYRKHFPQTHSPNKPQCDGAGGASGLASPGC
# Biological target: 3xFLAG-tagged VP3 of rotavirus SA11, expressed by the recombinant virus rSA11-VP3-3xFLAG (simian rotavirus SA11 (group A rotavirus))
# Experiment: affinity purification with mass spectrometry; HT-29 cells pretreated with 20 uM MG-132 and infected (MOI 5) with rSA11-VP3-3xFLAG or rSA11-NSP1-3xFLAG-UnaG; harvested 7 h pi; clarified lysates immunoprecipitated with anti-FLAG M2 magnetic beads; LC-MS on Orbitrap Fusion Lumos
binder,measurement,value
B1,binding,no binding
